Among the data in article PMC3199867, “Targeting surface nucleolin with multivalent HB-19 and related Nucant pseudopeptides results in distinct inhibitory mechanisms depending on the malignant tumor cell type” (BMC Cancer, 2011) are binding values, retold here.

Amino acid sequences for entries named in this document (tags omitted). Residues count along the entry.
UniProt P19338: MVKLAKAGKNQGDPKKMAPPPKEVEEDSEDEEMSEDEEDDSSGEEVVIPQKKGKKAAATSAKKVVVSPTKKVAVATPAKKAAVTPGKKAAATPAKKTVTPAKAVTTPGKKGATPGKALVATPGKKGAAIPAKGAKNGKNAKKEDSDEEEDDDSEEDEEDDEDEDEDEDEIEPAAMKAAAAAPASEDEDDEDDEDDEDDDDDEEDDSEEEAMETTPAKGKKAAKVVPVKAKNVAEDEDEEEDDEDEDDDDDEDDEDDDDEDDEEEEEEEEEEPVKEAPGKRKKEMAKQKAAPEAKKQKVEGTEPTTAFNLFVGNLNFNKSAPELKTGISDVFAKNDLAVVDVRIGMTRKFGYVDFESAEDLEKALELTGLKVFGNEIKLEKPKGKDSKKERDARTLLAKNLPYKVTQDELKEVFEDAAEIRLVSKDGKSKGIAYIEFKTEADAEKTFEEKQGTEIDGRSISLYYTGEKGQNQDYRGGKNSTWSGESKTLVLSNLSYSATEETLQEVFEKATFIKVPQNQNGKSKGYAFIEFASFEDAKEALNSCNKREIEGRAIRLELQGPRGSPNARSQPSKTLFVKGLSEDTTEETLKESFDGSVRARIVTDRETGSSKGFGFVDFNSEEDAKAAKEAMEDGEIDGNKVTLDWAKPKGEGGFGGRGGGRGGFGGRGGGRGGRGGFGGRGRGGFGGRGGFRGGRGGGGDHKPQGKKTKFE
UniProt Q07021, residues 74-282: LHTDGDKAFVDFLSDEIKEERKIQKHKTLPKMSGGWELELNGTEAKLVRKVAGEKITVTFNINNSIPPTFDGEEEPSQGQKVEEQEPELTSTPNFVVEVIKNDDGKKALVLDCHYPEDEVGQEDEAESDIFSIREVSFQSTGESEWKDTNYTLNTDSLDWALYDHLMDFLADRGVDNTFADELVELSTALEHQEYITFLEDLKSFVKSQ

To fix the notation:
B1: signal recognition particle subunit SRP72 (protein, UniProt O76094 2-671)
chain: ASGGSGGVSVPALWSEVNRYGQNGDFTRALKTVNKILQINKDDVTALHCKVVCLIQNGSFKEALNVINTHTKVLANNSLSFEKAYCEYRLNRIENALKTIESANQQTDKLKELYGQVLYRLERYDECLAVYRDLVRNSQDDYDEERKTNLSAVVAAQSNWEKVVPENLGLQEGTHELCYNTACALIGQGQLNQAMKILQKAEDLCRRSLSEDTDGTEEDPQAELAIIHGQMAYILQLQGRTEEALQLYNQIIKLKPTDVGLLAVIANNIITINKDQNVFDSKKKVKLTNAEGVEFKLSKKQLQAIEFNKALLAMYTNQAEQCRKISASLQSQSPEHLLPVLIQAAQLCREKQHTKAIELLQEFSDQHPENAAEIKLTMAQLKISQGNISKACLILRSIEELKHKPGMVSALVTMYSHEEDIDSAIEVFTQAIQWYQNHQPKSPAHLSLIREAANFKLKYGRKKEAISDLQQLWKQNPKDIHTLAQLISAYSLVDPEKAKALSKHLPSSDSMSLKVDVEALENSAGATYIRKKGGKVTGDSQPKEQGQGDLKKKKKKKKGKLPKNYDPKVTPDPERWLPMRERSYYRGRKKGKKKDQIGKGTQGATAGASSELDASKTVSSPPTSPRPGSAATVSASTSNIIPPRHQKPAGAPATKKKQQQKKKKGGKGGW
B2: signal recognition particle subunit SRP68 (protein, UniProt Q9UHB9 2-627)
chain: AAEKQVPGGGGGGGSGGGGGSGGGGSGGGRGAGGEENKENERPSAGSKANKEFGDSLSLEILQIIKESQQQHGLRHGDFQRYRGYCSRRQRRLRKTLNFKMGNRHKFTGKKVTEELLTDNRYLLLVLMDAERAWSYAMQLKQEANTEPRKRFHLLSRLRKAVKHAEELERLCESNRVDAKTKLEAQAYTAYLSGMLRFEHQEWKAAIEAFNKCKTIYEKLASAFTEEQAVLYNQRVEEISPNIRYCAYNIGDQSAINELMQMRLRSGGTEGLLAEKLEALITQTRAKQAATMSEVEWRGRTVPVKIDKVRIFLLGLADNEAAIVQAESEETKERLFESMLSECRDAIQVVREELKPDQKQRDYILEGEPGKVSNLQYLHSYLTYIKLSTAIKRNENMAKGLQRALLQQQPEDDSKRSPRPQDLIRLYDIILQNLVELLQLPGLEEDKAFQKEIGLKTLVFKAYRCFFIAQSYVLVKKWSEALVLYDRVLKYANEVNSDAGAFKNSLKDLPDVQELITQVRSEKCSLQAAAILDANDAHQTETSSSQVKDNKPLVERFETFCLDPSLVTKQANLVHFPPGFQPIPCKPLFFDLALNHVAFPPLEDKLEQKTKSGLTGYIKGIFGFRS

No constants are given. Whether binding was seen depends on the method and setting. Binding seen in cells or lysates may run through a third protein. Some entries that bind do so weakly or less than the wild type.

The target of this test is nucleolin (cell-surface expressed nucleolin), human (human (endogenous in HeLa, CEM, MDA-MB-231, HuT 78 and other human cell lines)) (UniProt P19338). In words: pull-down; proteins recovered with surface nucleolin from CEM cells through HB-19/Btn and avidin-agarose (buffer E with 0.5% Triton X-100, washes in PBS/EDTA); bands of the SDS-PAGE identified by NH2-terminal microsequencing.
For “receptor for complement component C1q (gC1q-R) (from UniProt Q07021 74-282)”, the binding result was “binds”.
Then B1, with “binds”.
The same measure for B2: “binds”.
